From PubChem BioAssay AID256 (DTP/NCI, 2004)
The list is a part of this screen's results and no random one: it is rich in T/C values a quarter to a half above the control, in often repeated tests (any T/C) and in doses without a T/C. Further doses and runs are listed elsewhere. T/C gives the treated animals as a percentage of the vehicle group. Some entries give survivors of the animals treated and no T/C: the source holds a T/C of zero for them, seemingly a mark for toxic or unscored doses. Some doses without a T/C left all or most animals alive at the check, yet need not have been tolerated: the source hardly ever lists a survival T/C far under the control, and the zero likely stands for such cases as well. Counts of survivors are from the toxicity check (mostly the fifth day) where no day follows; animals may have died later. Schedules are NCI's codes, read here as Q, the interval in days (D) or hours (H), X, the number of doses. Some entries were tested several times; the values are given in rising order. For survival time, this PubChem deposit counts one and a half times the control or more as active, and values a quarter to a half above the control carry no call in these data; other NCI protocols may use other cut-offs. Some T/C values are followed by the survivors on the day toxicity was checked, most often the fifth; without a count, all were alive then.

Test system: CD2F1 mice, L1210 leukemia ip, survival T/C
Test: NCI In Vivo Anticancer Drug Screen. Data for tumor model L1210 Leukemia (intraperitoneal) in CD2F1 (CDF1) mice
Details: higher T/C = longer survival
Summary of the method: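 Tumor-bearing mice (transplanted tumor) were split into treated and vehicle control groups, and the measured endpoint of each treated group was divided by that of its vehicle controls.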

[1] = T/C endpoint: mean survival time, dose: 100.0 mg/kg/injection, schedule: Q04DX003 (ip), vehicle: saline with Tween-80
[2] = T/C endpoint: mean survival time, dose: 200.0 mg/kg/injection, schedule: Q04DX003 (ip), vehicle: saline with Tween-80
[3] = T/C endpoint: mean survival time, dose: 400.0 mg/kg/injection, schedule: Q04DX003 (ip), vehicle: saline with Tween-80
[4] = T/C endpoint: mean survival time, dose: 400.0 mg/kg/injection, schedule: Q01DX009 (ip), vehicle: saline with Tween-80
[5] = T/C endpoint: mean survival time, dose: 200.0 mg/kg/injection, schedule: Q04DX003 (ip), vehicle: Klucel (hydroxypropylcellulose) (HPC)
[6] = T/C endpoint: mean survival time, dose: 400.0 mg/kg/injection, schedule: Q04DX003 (ip), vehicle: Klucel (hydroxypropylcellulose) (HPC)
[7] = T/C endpoint: mean survival time, dose: 300.0 mg/kg/injection, schedule: Q01DX001 (ip), vehicle: saline
[8] = T/C endpoint: median survival time, dose: 400.0 mg/kg/injection, schedule: Q01DX009 (ip), vehicle: saline with Tween-80
[9] = T/C endpoint: mean survival time, dose: 400.0 mg/kg/injection, schedule: Q04DX002 (ip), vehicle: saline with Tween-80
[10] = T/C endpoint: mean survival time, dose: 400.0 mg/kg/injection, schedule: Q01DX001 (ip), vehicle: saline with Tween-80
[11] = T/C endpoint: mean survival time, dose: 200.0 mg/kg/injection, schedule: Q01DX009 (ip), vehicle: saline with Tween-80
[12] = T/C endpoint: median survival time, dose: 800.0 mg/kg/injection, schedule: Q01DX009 (ip), vehicle: saline with Tween-80

With O=NN(CCCl)C(=O)Nc1ccc2[nH]c3ccccc3c2c1 the T/C (T/C endpoint: mean survival time, dose: 265.0 mg/kg/injection, schedule: Q01DX009 (ip), vehicle: saline with Tween-80) was 141 % of control, the survivor count (T/C endpoint: mean survival time, dose: 400.0 mg/kg/injection, schedule: Q01DX009 (ip), vehicle: Klucel (hydroxypropylcellulose) (HPC)) was 5 of 6 and the survivor count (T/C endpoint: mean survival time, dose: 600.0 mg/kg/injection, schedule: Q01DX009 (ip), vehicle: saline with Tween-80) was 0 of 6.

CC[n+]1ccc(Nc2ccc(NC(=O)c3ccc(Nc4cc[n+](CC)c5ccc([N+](=O)[O-])cc45)cc3)cc2)cc1 was tested, and the T/C (T/C endpoint: mean survival time, dose: 16.5 mg/kg/injection, schedule: Q01DX009 (ip), vehicle: saline) was 140 % of control.

In the case of N#CCc1nc2ccccc2[nH]1, the survivor count (T/C endpoint: mean survival time, dose: 100.0 mg/kg/injection, schedule: Q01DX009 (ip), vehicle: Klucel (hydroxypropylcellulose) (HPC)) is reported as 2 of 6.

With COc1ccc(/C=c2\[nH]c(=O)/c(=C/c3ccc(OC)c(OC)c3)[nH]c2=O)cc1OC the survivor count [1] was 6 of 6, the survivor count [2] was 6 of 6 and the survivor count [3] was 6 of 6.

C[n+]1ccc(Nc2ccc(NC(=O)c3ccc(Nc4cc[n+](C)c5ccc(N)cc45)cc3N)cc2)cc1 was tested, and the T/C (T/C endpoint: mean survival time, dose: 1.0 mg/kg/injection, schedule: Q01DX009 (ip), vehicle: water) was 130 % of control, the survivor count (T/C endpoint: mean survival time, dose: 8.0 mg/kg/injection, schedule: Q01DX009 (ip), vehicle: water) was 6 of 10 and the survivor count (T/C endpoint: mean survival time, dose: 16.0 mg/kg/injection, schedule: Q01DX009 (ip), vehicle: water) was 2 of 10. For the same compound, the survivor count (T/C endpoint: mean survival time, dose: 32.0 mg/kg/injection, schedule: Q01DX009 (ip), vehicle: water) was 0 of 10.

With O=C(O)c1ccccc1C(=O)Nc1ccc(Cl)cc1 the survivor count [4] was 3 of 6.

With Cn1c(Cl)nc2c(Cl)nc(Cl)nc21 the survivor count [5] was 0 of 6 and the survivor count [6] was 0 of 6.

For N#CC1=C(C#N)C(=O)c2ccccc2C1=O, the survivor count [1] was 6 of 6, the survivor count [2] was 5 of 6 and the survivor count [3] was 4 of 6.

With FC1(F)C(Cl)=[C]([Hg][C]2=C(Cl)C(F)(F)C(F)(F)C(F)(F)C2(F)F)C(F)(F)C(F)(F)C1(F)F the survivor count (T/C endpoint: mean survival time, dose: 150.0 mg/kg/injection, schedule: Q04DX003 (ip), vehicle: saline) was 1 of 6 and the survivor count [7] was 1 of 6.

With CC(C)(C)c1ccc(OCCO)cc1 the survivor count (T/C endpoint: mean survival time, dose: 200.0 mg/kg/injection, schedule: Q01DX009 (ip), vehicle: other) was 3 of 6, the survivor count [2] was 6 of 6 and the survivor count (T/C endpoint: mean survival time, dose: 400.0 mg/kg/injection, schedule: Q01DX009 (ip), vehicle: other) was 0 of 6. For the same compound, the survivor count [3] was 1 of 6.

For CCOC(=O)C1=C(C)O/C(=C/c2cccc(Cl)c2)C1=O, the survivor count [8] was 0 of 6.

With CC1(C)N=C(N)N=C(N)N1c1cccc(OCCOc2cccc(N)c2)c1 the survivor count (T/C endpoint: mean survival time, dose: 100.0 mg/kg/injection, schedule: Q01DX001 (ip), vehicle: Klucel (hydroxypropylcellulose) (HPC)) was 1 of 3.

With CCCCC/C(C)=N\O the survivor count [3] was 1 of 6.

With COc1ccc(NC(=O)Oc2ccc(C(C)(C)C)cc2)cc1 the survivor count (T/C endpoint: mean survival time, dose: 200.0 mg/kg/injection, schedule: Q04DX002 (ip), vehicle: saline with Tween-80) was 3 of 3 and the survivor count [9] was 2 of 3.

For COc1ccc(NC(=O)Nc2ccc(C)cc2C)cc1, the survivor count [4] was 6 of 6.

For Clc1ccc(NC2=NCCO2)cc1, the survivor count [5] was 6 of 6 and the survivor count [6] was 2 of 6.

With CC1=CCC=C(CNc2ncnc3nc[nH]c23)C1 the survivor count [2] was 6 of 6 and the survivor count [3] was 5 of 6.

For CNC1CCCCC1[N+](C)(C)C (stereo not given), the survivor count [1] was 0 of 6, the survivor count [2] was 0 of 6 and the survivor count [3] was 0 of 6.

For O=C1C=C(c2ccccc2)C/C1=C\c1ccccc1, the survivor count [10] was 3 of 3.

For C(=C(/C=C/c1ccccc1)/C=C/c1ccccc1)C(=C/c1ccccc1)/c1ccccc1, the survivor count (T/C endpoint: mean survival time, dose: 25.0 mg/kg/injection, schedule: Q01DX009 (ip), vehicle: saline with Tween-80) was 6 of 6, the survivor count (T/C endpoint: mean survival time, dose: 100.0 mg/kg/injection, schedule: Q01DX001 (ip), vehicle: saline with Tween-80) was 6 of 6 and the survivor count (T/C endpoint: mean survival time, dose: 200.0 mg/kg/injection, schedule: Q01DX001 (ip), vehicle: saline with Tween-80) was 6 of 6. For the same compound, the survivor count [10] was 6 of 6.

For CCOC(OCC)/C(C)=N/[N+](C)(C)C, the survivor count [7] was 3 of 6.

For NCc1ccc([N+](=O)[O-])cc1Cl, the survivor count [11] was 1 of 3.

For CNC(=O)NNC(=O)c1ccc(Cl)cc1, the survivor count (T/C endpoint: mean survival time, dose: 100.0 mg/kg/injection, schedule: Q01DX009 (ip), vehicle: saline with Tween-80) was 4 of 6, the survivor count [11] was 0 of 6 and the survivor count [4] was 0 of 6.

For COc1cc(C=C(c2ccc(N(C)C)cc2)c2ccc(N(C)C)cc2)c(OC)c2ccccc12, the survivor count [9] was 3 of 3.

COc1ccc(Nc2nc(N)nc3c2ncn3C2OC(CO)C(O)C2O)cc1 (stereo not given) was tested, and the survivor count (T/C endpoint: mean survival time, dose: 200.0 mg/kg/injection, schedule: Q01DX005 (ip), vehicle: distilled water + Tween-80) was 0 of 6.

For N#CC(Cl)(C#N)c1ccc(C(Cl)(C#N)C#N)cc1, the survivor count [11] was 3 of 6 and the survivor count [4] was 0 of 6.

With C/C=C/C=C\C=C/C(O)CC(OP(=O)(O)O)C(C)(O)/C=C/C1CC=CC(=O)O1 (stereo not given) the T/C (T/C endpoint: median survival time, dose: 1.5 mg/kg/injection, schedule: Q01DX009 (ip), vehicle: water) was 132 % of control and the survivor count (T/C endpoint: median survival time, dose: 12.0 mg/kg/injection, schedule: Q01DX009 (ip), vehicle: water) was 0 of 6.

With O=C(O)c1cc(C(=O)O)cc(S(=O)(=O)O)c1.[NH-]C1CCCCC1[NH-].[Pt+2] the T/C (T/C endpoint: median survival time, dose: 12.5 mg/kg/injection, schedule: Q04DX003 (ip), vehicle: saline) was 128 % of control [5 of 6 alive], the T/C (T/C endpoint: median survival time, dose: 25.0 mg/kg/injection, schedule: Q04DX003 (ip), vehicle: saline) was 128 % of control and the T/C (T/C endpoint: median survival time, dose: 100.0 mg/kg/injection, schedule: Q04DX003 (ip), vehicle: saline) was 141 % of control [5 of 6 alive]. The survivor count (T/C endpoint: median survival time, dose: 200.0 mg/kg/injection, schedule: Q04DX003 (ip), vehicle: saline) was 3 of 6 and 4 of 6.

CNNCCCC(=O)NC(C)C was tested, and the survivor count (T/C endpoint: mean survival time, dose: 400.0 mg/kg/injection, schedule: Q04DX003 (ip), vehicle: saline) was 3 of 6.

For O=C1C(Sc2ccc3ccccc3c2)=C(Sc2ccc3ccccc3c2)C(=O)c2ccccc21, the survivor count [1] was 5 of 6.

For CCOC(CN(N=O)c1ccccc1C(C)C)OCC, the survivor count [4] was 3 of 6.

For COC(=O)C(N)CCCCNc1ccc2c(cc1=O)C(NC(C)=O)CCc1cc(OC)c(OC)c(OC)c1-2 (stereo not given), the survivor count (T/C endpoint: mean survival time, dose: 270.0 mg/kg/injection, schedule: Q01DX009 (ip), vehicle: saline) was 6 of 10, the survivor count (T/C endpoint: mean survival time, dose: 400.0 mg/kg/injection, schedule: Q01DX009 (oral), vehicle: saline) was 1 of 6 and the survivor count (T/C endpoint: mean survival time, dose: 400.0 mg/kg/injection, schedule: Q04DX002 (ip), vehicle: saline) was 2 of 3. The survivor count (T/C endpoint: mean survival time, dose: 800.0 mg/kg/injection, schedule: Q01DX001 (ip), vehicle: saline with Tween-80) was 1 of 6, the survivor count (T/C endpoint: mean survival time, dose: 800.0 mg/kg/injection, schedule: Q01DX001 (ip), vehicle: saline) was 0 of 6 and the survivor count (T/C endpoint: mean survival time, dose: 800.0 mg/kg/injection, schedule: Q01DX001 (sc), vehicle: saline) was 3 of 6. For the same compound, the survivor count (T/C endpoint: mean survival time, dose: 800.0 mg/kg/injection, schedule: Q08DX002 (ip), vehicle: saline) was 0 of 6.

For O=c1[nH]cccc1O, the T/C (T/C endpoint: median survival time, dose: 100.0 mg/kg/injection, schedule: Q01DX009 (ip), vehicle: saline with Tween-80) was 100, 102, 103, 113 % of control, the T/C (T/C endpoint: median survival time, dose: 200.0 mg/kg/injection, schedule: Q01DX009 (ip), vehicle: saline with Tween-80) was 111, 112, 116 [5 of 6 alive], 138 % of control and the T/C [8] was 111 [4 of 6 alive], 122, 143 [5 of 6 alive], 149 % of control. The T/C (T/C endpoint: median survival time, dose: 500.0 mg/kg/injection, schedule: Q01DX009 (ip), vehicle: saline with Tween-80) was 139 % of control, the survivor count (T/C endpoint: median survival time, dose: 532.0 mg/kg/injection, schedule: Q03HX027 (ip), vehicle: saline with Tween-80) was 0 of 6 and the T/C [12] was 159 % of control [5 of 6 alive]. The survivor count [12] was 0 of 6 and 1 of 6 and the survivor count (T/C endpoint: median survival time, dose: 1000.0 mg/kg/injection, schedule: Q01DX009 (ip), vehicle: saline with Tween-80) was 2 of 6.
